# Experimental data: PubChem BioAssay AID743121 (NCATS, 2013)
# Test: 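Genes whose silencing strengthens cell killing by camptothecin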 (primary screen)
# System: MDA-MB-231 cells, a human breast cancer line
# Reagent: single siRNA against human genes, 20 nM siRNA (0.8 pmol per well)
# Timing: 120 h (drug added 48 h after transfection, read 72 h later)
# Conditions: camptothecin 20 nM (about EC30) for 72 h; vehicle 0.1% DMSO in parallel plates
# Read-out: 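Cell viability by ATP luminescence (CellTiter-Glo) as % of non-targeting siRNA wells, and the log2 ratio of viability without drug over viability with camptothecin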
# Direction: log2 vehicle/camptothecin viability: higher = stronger sensitisation to camptothecin; viability with camptothecin: higher = more viable cells
# Hit rule: 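Active genes have an RSA gene-level p-value below 0.001, computed from the ratios of their separate siRNAs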
# Here is a random part of about 26,000 reagents. 167 of them (0.63%) were called active. 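Calls are per gene from RSA p-values that are not deposited; an individual active-marked siRNA can sensitise only weakly.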 Reagents against one gene are numbered here. Further read-outs or replicates are left out here.
gene,reagent no.,log2 vehicle/camptothecin viability,viability with camptothecin (% of control),Outcome
TGFB3,1,-0.238,98.3,inactive
TGFB3,2,-0.146,99.8,inactive
TGFB3,3,-0.299,59.2,inactive
TGFB3,4,0.243,27.8,inactive
TGFB1I1,1,-0.363,87.6,inactive
TGFB1I1,2,-0.381,58,inactive
TGFB1I1,3,-0.406,40,inactive
TGFB1I1,4,-0.378,83.1,inactive
PPP2R5A,1,-0.415,101,inactive
PPP2R5A,2,-0.157,94.8,inactive
PPP2R5A,3,-0.0592,103,inactive
PPP2R5A,4,-0.328,73.3,inactive
GRK6,1,0.482,51.8,inactive
GRK6,2,-0.635,32.8,inactive
GRK6,3,-0.121,88.5,inactive
GRK6,4,-0.364,77.9,inactive
CLCNKA,1,-0.0228,63.9,inactive
CLCNKA,2,-0.424,95.9,inactive
CLCNKA,3,-0.475,35,inactive
CLCNKA,4,-0.259,101,inactive
PJA1,1,0.057,70.3,inactive
PJA1,2,0.00493,71.1,inactive
PJA1,3,0.1,103,inactive
PJA1,4,0.0115,57.3,inactive
TPSG1,1,0.325,52.3,inactive
TPSG1,2,-0.551,58.2,inactive
TPSG1,3,-0.175,26.4,inactive
TPSG1,4,-0.404,75.7,inactive
ARR3,1,0.369,25.3,inactive
ARR3,2,-0.222,66.6,inactive
ARR3,3,-0.224,88.6,inactive
GUSB,1,-0.0684,123,inactive
GUSB,2,0.405,65.3,inactive
GUSB,3,-0.116,66.4,inactive
GUSB,4,0.85,23.6,inactive
MAPK3,1,-0.131,74.1,inactive
MAPK3,2,-0.0343,71.3,inactive
MAPK3,3,-0.221,88.6,inactive
MAPK3,4,-0.275,85.1,inactive
SLC35H1,1,-0.0246,123,inactive
SLC35H1,2,0.0471,113,inactive
SLC35H1,3,0.627,48.1,inactive
SLC35H1,4,0.843,46.7,inactive
NR5A2,1,-0.0547,81.3,inactive
NR5A2,2,-0.134,71.9,inactive
NR5A2,3,-0.0737,102,inactive
NR5A2,4,-0.15,36.8,inactive
RAB5B,1,-0.0912,111,inactive
RAB5B,2,-0.375,84.7,inactive
RAB5B,3,-0.517,139,inactive
PTPN7,1,-0.0991,90.3,inactive
PTPN7,2,-0.358,69.3,inactive
PTPN7,3,-0.293,101,inactive
PTPN7,4,-0.114,19.2,inactive
INPP5A,1,-0.293,108,inactive
INPP5A,2,-0.143,86,inactive
INPP5A,3,-0.0788,37.6,inactive
INPP5A,4,-0.314,43.4,inactive
KIF20B,1,-0.142,115,inactive
KIF20B,2,0.013,88.9,inactive
KIF20B,3,-0.181,111,inactive
KIF20B,4,-0.406,106,inactive
PIK3R4,1,-0.0503,86.3,inactive
PIK3R4,2,-0.338,76.6,inactive
PIK3R4,3,-0.462,64.3,inactive
PIK3R4,4,-0.603,63.8,inactive
CNR2,1,-0.326,80.4,inactive
CNR2,2,0.138,59.5,inactive
CNR2,3,-0.2,92.8,inactive
CNR2,4,-0.127,88.6,inactive
GDF9,1,-0.153,128,inactive
GDF9,2,-0.247,112,inactive
GDF9,3,-0.311,74.5,inactive
GDF9,4,0.277,54.4,inactive
F7,1,-0.00185,81.2,inactive
F7,2,-0.0624,94.8,inactive
F7,3,-0.449,80.1,inactive
F7,4,-0.283,66.9,inactive
MTMR12,1,-0.333,61.2,inactive
MTMR12,2,-0.0157,79.1,inactive
MTMR12,3,-0.217,46.6,inactive
MTMR12,4,-0.0458,70.5,inactive
IFNA16,1,0.0647,33.5,inactive
IFNA16,2,-0.0841,118,inactive
IFNA16,3,0.102,37.2,inactive
IFNA16,4,-0.1,105,inactive
NPAS3,1,0.222,75.3,inactive
NPAS3,2,0.261,57.5,inactive
NPAS3,3,-0.0806,86,inactive
NPAS3,4,-0.0365,47,inactive
